Experimental data: PMC10561026
Positions count from the first letter of the chain named. Names may count otherwise. These are yes or no findings as the source states them, for the method shown. Some entries that bind do so weakly or less than the wild type. One block for each binder: values may come before it.

Molecular target: T1, penicillin-binding protein (PBP) 2 (E. coli) (UniProt P0AD65)
T1 sequence: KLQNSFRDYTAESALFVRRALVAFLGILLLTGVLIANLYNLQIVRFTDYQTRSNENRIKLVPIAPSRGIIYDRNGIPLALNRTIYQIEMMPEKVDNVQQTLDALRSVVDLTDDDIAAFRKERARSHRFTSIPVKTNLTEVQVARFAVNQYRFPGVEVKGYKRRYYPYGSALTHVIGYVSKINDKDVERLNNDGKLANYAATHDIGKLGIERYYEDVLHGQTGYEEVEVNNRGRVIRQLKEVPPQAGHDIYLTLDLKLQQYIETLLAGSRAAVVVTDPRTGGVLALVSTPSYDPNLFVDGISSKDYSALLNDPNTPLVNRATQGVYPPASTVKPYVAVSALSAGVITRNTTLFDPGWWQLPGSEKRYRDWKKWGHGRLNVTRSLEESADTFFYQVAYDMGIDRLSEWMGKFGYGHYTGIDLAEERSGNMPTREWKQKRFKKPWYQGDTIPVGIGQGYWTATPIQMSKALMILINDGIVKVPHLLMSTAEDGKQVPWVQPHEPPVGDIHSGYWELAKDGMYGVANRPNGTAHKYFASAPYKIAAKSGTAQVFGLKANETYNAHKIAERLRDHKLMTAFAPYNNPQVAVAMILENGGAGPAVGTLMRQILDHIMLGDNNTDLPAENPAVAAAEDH
Assay: two-hybrid; bacterial two-hybrid (BACTH): proteins fused to the T18 or T25 fragment of adenylate cyclase in DHM1 cells, streaked on a plate with X-gal, 37°C overnight; Miller units, average of two independent experiments

binding: binds
B1: RodA^A234T (enzyme, UniProt P0ABG7 2-370)
chain: TDNPNKKTFWDKVHLDPTMLLILLALLVYSALVIWSASGQDIGMMERKIGQIAMGLVIMVVMAQIPPRVYEGWAPYLYIICIILLVAVDAFGAISKGAQRWLDLGIVRFQPSEIAKIAVPLMVARFINRDVCPPSLKNTGIALVLIFMPTLLVAAQPDLGTSILVALSGLFVLFLSGLSWRLIGVAVVLVAAFIPILWFFLMHDYQRQRVMMLLDPESDPLGAGYHIIQSKITIGSGGLRGKGWLHGTQSQLEFLPERHTDFIFAVLAEELGLVGILILLALYILLIMRGLWIAARAQTTFGRVMAGGLMLILFVYVFVNIGMVSGILPVVGVPLPLVSYGGSALIVLMAGFGIVMSIHTHRKMLSKSV

binding: no binding
B2: RodA (enzyme, UniProt P0ABG7 2-370)
chain: B1 chain with T233A

binding: binds
B3: RodA^K243N (enzyme, UniProt P0ABG7 2-370)
chain: B1 chain with T233A, K242N
